Some of the results follow.
Tests used:
Experiment in all cases: log2 fold change, soluble protein after heating vs DMSO (PISA); higher = thermal stabilisation; K562 lysate, 10 uM; active = over 0.2 and 3.5 SD of the protein, either way, in both replicates (recomputed)
ibrutinib = compound: C=CC(=O)N1CCC[C@@H](n2nc(-c3ccc(Oc4ccccc4)cc3)c3c(N)ncnc32)C1 [ibrutinib]
In short: (§1)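 Pellets of K562 cells were dounce-homogenised in PBS pH 7.4 with 1 mM MgCl2, and the crude extract was held at 1 mg/mL protein for a 30 min treatment with 10 μM compound. Aliquots were heated for 3 min over 48°C-58°C and pooled before NP-40 was added to 0.5% at 4°C. The supernatant from 21,000xg for 90 min was quantified by TMTpro 16plex LC-MS/MS with channel sums equalised. Values are reported from duplicates as log-two fold change in thermal stability relative to solvent controls.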

Sequences of proteins named here, by UniProt entry; tags and fusion partners are left off. A change or cut given only in a name is not applied to a line headed by its entry.
UniProt Q9Y5U2: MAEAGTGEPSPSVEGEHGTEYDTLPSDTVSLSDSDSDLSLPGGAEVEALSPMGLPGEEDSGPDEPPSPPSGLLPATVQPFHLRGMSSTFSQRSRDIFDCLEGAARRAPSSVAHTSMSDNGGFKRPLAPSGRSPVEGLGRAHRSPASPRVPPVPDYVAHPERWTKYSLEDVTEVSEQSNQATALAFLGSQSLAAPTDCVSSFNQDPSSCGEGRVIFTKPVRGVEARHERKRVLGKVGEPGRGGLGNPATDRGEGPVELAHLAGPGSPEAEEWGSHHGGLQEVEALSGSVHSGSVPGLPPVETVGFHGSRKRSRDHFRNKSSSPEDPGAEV
UniProt A5PLN9: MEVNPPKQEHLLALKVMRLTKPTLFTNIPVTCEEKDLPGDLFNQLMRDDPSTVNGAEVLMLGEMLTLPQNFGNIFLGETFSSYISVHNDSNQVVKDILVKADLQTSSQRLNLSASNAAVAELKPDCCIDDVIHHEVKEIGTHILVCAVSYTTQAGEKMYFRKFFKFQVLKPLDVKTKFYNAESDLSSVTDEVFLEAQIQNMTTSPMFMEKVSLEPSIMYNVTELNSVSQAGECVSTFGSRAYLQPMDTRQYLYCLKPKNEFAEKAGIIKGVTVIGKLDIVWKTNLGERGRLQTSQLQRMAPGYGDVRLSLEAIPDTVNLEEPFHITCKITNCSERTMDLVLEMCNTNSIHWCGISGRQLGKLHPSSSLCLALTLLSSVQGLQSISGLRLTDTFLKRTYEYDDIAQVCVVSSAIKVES
UniProt Q8TDR0: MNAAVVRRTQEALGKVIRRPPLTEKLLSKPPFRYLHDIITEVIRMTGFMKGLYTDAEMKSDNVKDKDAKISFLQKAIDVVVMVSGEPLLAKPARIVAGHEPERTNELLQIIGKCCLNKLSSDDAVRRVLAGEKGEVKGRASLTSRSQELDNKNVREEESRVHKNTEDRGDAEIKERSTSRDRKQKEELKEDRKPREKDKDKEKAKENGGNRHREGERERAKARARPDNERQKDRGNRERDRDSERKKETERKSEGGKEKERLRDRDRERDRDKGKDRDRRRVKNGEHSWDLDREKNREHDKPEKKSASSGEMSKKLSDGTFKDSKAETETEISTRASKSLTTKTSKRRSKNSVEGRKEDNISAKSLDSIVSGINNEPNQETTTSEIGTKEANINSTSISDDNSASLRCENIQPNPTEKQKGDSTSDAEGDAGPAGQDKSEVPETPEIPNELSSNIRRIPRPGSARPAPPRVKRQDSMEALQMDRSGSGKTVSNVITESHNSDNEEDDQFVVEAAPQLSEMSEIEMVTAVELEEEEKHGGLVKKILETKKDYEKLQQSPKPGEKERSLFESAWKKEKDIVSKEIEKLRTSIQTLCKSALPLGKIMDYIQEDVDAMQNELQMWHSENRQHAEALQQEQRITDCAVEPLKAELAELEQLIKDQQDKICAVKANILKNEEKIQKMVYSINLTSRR
UniProt Q9BU70: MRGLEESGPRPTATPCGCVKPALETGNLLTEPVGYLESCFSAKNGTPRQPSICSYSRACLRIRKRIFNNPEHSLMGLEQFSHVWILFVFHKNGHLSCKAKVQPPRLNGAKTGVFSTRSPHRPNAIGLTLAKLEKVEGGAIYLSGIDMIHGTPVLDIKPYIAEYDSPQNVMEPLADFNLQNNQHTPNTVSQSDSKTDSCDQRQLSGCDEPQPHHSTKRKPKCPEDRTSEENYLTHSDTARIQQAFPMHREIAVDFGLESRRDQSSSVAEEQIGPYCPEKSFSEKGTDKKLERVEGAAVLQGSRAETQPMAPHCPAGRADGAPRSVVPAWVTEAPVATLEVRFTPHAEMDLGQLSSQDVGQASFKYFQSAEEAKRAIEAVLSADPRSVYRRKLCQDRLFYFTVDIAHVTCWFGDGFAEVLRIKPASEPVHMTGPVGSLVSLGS
UniProt Q96Q11: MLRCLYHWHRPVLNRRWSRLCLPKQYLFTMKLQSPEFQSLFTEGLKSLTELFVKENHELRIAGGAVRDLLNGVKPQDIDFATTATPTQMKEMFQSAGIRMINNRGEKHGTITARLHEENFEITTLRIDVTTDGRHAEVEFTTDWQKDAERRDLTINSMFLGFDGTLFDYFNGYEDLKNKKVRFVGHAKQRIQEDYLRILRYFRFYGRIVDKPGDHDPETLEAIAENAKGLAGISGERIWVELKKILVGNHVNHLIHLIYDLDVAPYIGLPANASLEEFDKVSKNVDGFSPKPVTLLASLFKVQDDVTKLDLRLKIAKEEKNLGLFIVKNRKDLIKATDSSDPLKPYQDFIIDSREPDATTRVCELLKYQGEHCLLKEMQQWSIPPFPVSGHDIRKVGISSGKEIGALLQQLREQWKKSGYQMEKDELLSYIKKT
UniProt Q5VTQ0: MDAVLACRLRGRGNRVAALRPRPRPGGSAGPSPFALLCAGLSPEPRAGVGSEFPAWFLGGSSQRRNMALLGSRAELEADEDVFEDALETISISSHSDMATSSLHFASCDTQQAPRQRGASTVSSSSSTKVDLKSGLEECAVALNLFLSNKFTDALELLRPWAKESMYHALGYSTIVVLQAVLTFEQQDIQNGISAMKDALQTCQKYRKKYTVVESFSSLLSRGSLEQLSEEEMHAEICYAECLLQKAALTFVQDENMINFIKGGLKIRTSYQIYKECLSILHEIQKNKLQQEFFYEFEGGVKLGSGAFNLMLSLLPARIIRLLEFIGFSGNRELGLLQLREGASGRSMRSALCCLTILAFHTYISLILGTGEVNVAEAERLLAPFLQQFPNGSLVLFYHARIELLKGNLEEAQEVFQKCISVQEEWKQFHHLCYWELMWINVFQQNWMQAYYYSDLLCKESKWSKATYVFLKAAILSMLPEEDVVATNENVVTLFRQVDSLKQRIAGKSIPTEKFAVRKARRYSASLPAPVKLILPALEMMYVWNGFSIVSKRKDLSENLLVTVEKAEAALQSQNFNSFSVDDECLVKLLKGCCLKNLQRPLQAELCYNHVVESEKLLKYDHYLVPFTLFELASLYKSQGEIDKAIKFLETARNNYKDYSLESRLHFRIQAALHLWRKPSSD
UniProt O43715: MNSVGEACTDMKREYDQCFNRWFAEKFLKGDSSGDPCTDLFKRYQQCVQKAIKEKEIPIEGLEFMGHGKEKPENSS
UniProt Q9C035: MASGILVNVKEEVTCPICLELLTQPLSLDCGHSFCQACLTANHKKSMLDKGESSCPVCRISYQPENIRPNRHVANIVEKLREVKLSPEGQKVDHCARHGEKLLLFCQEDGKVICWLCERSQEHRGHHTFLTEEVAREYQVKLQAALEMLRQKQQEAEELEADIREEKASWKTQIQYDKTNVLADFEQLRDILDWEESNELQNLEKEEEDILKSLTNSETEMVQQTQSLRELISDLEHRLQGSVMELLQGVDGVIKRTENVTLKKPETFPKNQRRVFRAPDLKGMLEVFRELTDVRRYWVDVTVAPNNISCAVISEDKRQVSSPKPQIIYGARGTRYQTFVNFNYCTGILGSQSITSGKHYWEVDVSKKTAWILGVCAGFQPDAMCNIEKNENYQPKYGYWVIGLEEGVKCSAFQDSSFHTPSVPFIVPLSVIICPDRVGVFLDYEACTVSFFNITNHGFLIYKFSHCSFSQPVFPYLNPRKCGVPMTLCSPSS
UniProt Q9NUP7: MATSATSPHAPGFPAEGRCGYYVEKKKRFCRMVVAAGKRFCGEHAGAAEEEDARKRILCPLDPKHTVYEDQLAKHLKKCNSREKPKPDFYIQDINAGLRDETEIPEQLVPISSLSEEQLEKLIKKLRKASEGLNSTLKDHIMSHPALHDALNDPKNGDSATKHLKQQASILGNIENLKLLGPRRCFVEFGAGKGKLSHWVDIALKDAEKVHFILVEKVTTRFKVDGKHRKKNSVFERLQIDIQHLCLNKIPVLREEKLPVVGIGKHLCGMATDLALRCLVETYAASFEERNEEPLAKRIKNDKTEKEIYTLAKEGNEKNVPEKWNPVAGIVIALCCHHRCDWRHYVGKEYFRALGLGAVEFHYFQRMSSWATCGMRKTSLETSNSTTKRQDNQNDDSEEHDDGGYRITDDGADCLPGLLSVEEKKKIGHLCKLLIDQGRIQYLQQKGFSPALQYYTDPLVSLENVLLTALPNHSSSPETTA
UniProt Q8NG06: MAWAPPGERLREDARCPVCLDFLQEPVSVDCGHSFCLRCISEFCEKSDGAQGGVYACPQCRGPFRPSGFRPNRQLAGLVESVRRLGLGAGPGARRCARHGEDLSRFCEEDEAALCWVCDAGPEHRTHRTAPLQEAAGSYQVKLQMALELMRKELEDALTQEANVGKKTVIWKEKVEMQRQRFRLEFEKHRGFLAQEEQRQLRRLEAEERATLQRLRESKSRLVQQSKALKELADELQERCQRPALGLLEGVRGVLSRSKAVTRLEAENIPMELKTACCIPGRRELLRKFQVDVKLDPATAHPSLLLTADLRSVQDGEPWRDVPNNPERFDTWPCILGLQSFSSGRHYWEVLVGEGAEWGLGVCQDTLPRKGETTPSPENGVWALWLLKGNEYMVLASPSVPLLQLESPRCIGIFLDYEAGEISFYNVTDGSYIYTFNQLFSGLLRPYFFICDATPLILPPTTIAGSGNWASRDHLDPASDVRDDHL
UniProt P14373: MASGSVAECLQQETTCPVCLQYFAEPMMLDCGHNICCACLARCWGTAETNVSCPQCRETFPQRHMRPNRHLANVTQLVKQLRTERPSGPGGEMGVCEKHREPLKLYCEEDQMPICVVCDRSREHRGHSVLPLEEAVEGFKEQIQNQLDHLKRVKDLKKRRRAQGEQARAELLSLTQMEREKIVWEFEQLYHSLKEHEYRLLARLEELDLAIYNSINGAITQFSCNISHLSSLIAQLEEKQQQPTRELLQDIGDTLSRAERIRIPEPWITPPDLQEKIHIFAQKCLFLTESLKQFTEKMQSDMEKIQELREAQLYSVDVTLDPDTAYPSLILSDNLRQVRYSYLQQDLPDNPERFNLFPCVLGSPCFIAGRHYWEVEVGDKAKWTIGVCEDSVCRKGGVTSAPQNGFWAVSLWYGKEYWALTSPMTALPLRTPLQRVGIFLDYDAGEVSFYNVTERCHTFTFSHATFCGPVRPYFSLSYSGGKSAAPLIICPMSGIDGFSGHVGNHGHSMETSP
UniProt O14717: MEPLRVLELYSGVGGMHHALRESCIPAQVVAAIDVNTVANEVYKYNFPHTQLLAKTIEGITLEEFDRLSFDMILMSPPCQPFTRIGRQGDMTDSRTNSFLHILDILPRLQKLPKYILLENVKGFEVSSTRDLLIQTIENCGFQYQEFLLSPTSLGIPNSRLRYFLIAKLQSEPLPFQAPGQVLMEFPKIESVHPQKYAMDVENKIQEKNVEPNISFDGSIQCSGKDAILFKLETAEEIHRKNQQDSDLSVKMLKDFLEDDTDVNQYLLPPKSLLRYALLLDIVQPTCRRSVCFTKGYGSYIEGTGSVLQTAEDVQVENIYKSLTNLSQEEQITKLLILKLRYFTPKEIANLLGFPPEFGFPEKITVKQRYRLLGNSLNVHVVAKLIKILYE
UniProt Q96Q05, whole entry, looked up: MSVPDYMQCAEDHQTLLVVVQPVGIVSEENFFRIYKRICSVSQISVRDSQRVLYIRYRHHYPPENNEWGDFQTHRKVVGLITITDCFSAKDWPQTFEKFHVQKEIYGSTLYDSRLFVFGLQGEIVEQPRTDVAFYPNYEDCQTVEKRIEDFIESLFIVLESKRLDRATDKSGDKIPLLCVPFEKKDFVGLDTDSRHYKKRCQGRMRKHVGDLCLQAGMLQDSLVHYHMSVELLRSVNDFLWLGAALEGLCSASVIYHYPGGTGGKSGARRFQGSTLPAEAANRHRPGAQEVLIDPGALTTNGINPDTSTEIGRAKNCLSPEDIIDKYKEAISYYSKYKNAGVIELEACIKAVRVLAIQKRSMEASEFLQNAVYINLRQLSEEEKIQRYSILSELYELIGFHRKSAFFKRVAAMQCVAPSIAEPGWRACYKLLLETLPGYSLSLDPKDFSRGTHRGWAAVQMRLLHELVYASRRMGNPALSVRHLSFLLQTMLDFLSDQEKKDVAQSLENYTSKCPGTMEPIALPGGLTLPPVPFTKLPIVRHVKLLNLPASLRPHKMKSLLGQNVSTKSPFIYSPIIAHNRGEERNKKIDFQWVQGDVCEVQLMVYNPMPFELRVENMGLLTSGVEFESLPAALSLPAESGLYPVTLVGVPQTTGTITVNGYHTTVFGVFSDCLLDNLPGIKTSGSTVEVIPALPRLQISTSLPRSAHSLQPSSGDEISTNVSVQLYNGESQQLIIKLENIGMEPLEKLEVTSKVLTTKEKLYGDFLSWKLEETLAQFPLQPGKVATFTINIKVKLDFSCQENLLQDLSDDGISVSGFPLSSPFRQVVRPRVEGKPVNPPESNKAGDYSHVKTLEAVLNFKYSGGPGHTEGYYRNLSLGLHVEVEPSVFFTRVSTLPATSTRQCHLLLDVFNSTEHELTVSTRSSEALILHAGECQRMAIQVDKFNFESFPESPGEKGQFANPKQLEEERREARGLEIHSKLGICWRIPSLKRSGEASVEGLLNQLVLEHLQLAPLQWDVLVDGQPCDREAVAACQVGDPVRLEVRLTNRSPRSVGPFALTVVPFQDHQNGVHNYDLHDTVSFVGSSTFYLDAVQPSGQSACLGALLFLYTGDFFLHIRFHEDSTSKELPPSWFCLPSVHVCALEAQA

[1] = compound: CC(=O)c1cnc2ccc(-c3cc(Cl)c(O)c(Cl)c3)nc2c1N[C@H]1CC[C@H](CN(C)C)CC1
In short: as §1

ralimetinib = compound: CC(C)(C)Cn1c(N)nc2ccc(-c3[nH]c(C(C)(C)C)nc3-c3ccc(F)cc3)nc21 [ralimetinib]
In short: as §1

[2] = compound: CC(C)(O)CC(=O)NCCn1ccc2ncnc(Nc3ccc(Oc4cccc(C(F)(F)F)c4)c(Cl)c3)c21
In short: as §1

[3] = compound: CC(C)C1=C2N=C(C=C(N2N=C1)NCC3=CC=CC=C3)NCCCCCCN
In short: as §1

[4] = compound: CC1=C(C(CC(=O)N1)C2=CC=C(C=C2)C(F)(F)F)C(=O)NC3=C(C=C4C(=C3)C=NN4)F
In short: as §1

[5] = compound: CC1=C(C2=C(C=C1)C(=O)C3=CC=CC=C3N2CCCN)C
In short: as §1

[6] = compound: CC1=C(C=C(C=C1)NC(=O)C2=CC(=CC=C2)C(C)(C)C#N)NC3=CC4=C(C=C3)N=CN(C4=O)C
In short: as §1

[7] = compound: CC1=C(C=C(C=C1)NC(=O)C2=CC(=CC=C2)N(C)C)NC(=O)C3=CC=C(C=C3)O
In short: as §1

[8] = compound: CC1=CC=C(C=C1)SC2=C3C=C(SC3=CN=C2)C(=O)N
In short: as §1

Measured: log2 fold change

TSC1 (UniProt Q92574)
inactive: ibrutinib 0.076 | [1] 0.019 | ralimetinib 0.065 | [2] 0.009 | [3] -0.003 | [4] -0.001 | [5] -0.06 | [6] 0.016 | [7] -0.001 | [8] 0.049

TSC22D2 (UniProt O75157)
inactive: ibrutinib 0.106 | [1] 0.02 | ralimetinib 0.025 | [2] 0.021 | [3] 0.027 | [4] -0.014 | [5] -0.061 | [6] 0.019 | [7] 0.018 | [8] -0.05

TRAPPC4 (UniProt Q9Y296)
inactive: ibrutinib -0.054 | [1] -0.009 | ralimetinib -0.021 | [2] -0.017 | [3] -0.014 | [4] -0.049 | [5] -0.015 | [6] 0.002 | [7] 0.032 | [8] 0.007

TSSC4 (UniProt Q9Y5U2)
inactive: ibrutinib 0.011 | [1] -0.074 | ralimetinib 0.004 | [2] 0.007 | [3] 0.046 | [4] -0.089 | [5] -0.021 | [6] 0.05 | [7] 0 | [8] -0.015

TRAPPC13 isoform 4 (UniProt A5PLN9)
inactive: ibrutinib -0.002 | [1] 0.002 | ralimetinib -0.017 | [2] -0.028 | [3] -0.003 | [4] -0.006 | [5] -0.089 | [6] 0.05 | [7] 0.069 | [8] 0.036

TRMT12 (UniProt Q53H54)
inactive: ibrutinib -0.083 | [1] -0.009 | ralimetinib 0.094 | [2] 0.063 | [3] -0.018 | [4] -0.081 | [5] -0.048 | [6] 0.036 | [7] 0.033 | [8] -0.031

TRIP11 (UniProt Q15643)
inactive: ibrutinib -0.032 | [1] -0.021 | ralimetinib 0.003 | [2] -0.021 | [3] 0.017 | [4] 0.087 | [5] 0.004 | [6] -0.001 | [7] -0.006 | [8] -0.011

TTLL12 (UniProt V9GY16)
inactive: ibrutinib -0.32 | ralimetinib -0.339 | [2] -0.165 | [3] -0.333 | [6] 0.031 | [7] -0.009

TRAF3IP1 (UniProt Q8TDR0)
inactive: ibrutinib -0.022 | [1] -0.037 | ralimetinib 0.05 | [2] 0.044 | [3] -0.01 | [5] -0.008 | [6] -0.036 | [7] -0.029 | [8] 0.032

TRMO (UniProt Q9BU70)
inactive: ibrutinib 0.178 | [5] -0.103 | [6] -0.07

Pulled one by one from above (2):
TRIP11 (UniProt Q15643)
inactive: ibrutinib -0.032 | [1] -0.021 | ralimetinib 0.003 | [2] -0.021 | [3] 0.017 | [4] 0.087 | [5] 0.004 | [6] -0.001 | [7] -0.006 | [8] -0.011

TRAF3IP1 (UniProt Q8TDR0)
inactive: ibrutinib -0.022 | [1] -0.037 | ralimetinib 0.05 | [2] 0.044 | [3] -0.01 | [5] -0.008 | [6] -0.036 | [7] -0.029 | [8] 0.032

Further records

TRNT1 (UniProt Q96Q11)
inactive: ibrutinib 0.008 | [1] -0.003 | ralimetinib 0.02 | [2] -0.01 | [3] 0.009 | [4] -0.039 | [5] 0.013 | [6] 0.023 | [7] 0.051 | [8] 0.008

TTC39B (UniProt Q5VTQ0)
inactive: ibrutinib 0.092 | [1] 0.095 | ralimetinib 0.066 | [2] -0.046 | [3] 0.039 | [5] -0.038 | [7] 0.041 | [8] 0.022

TRIP13 (UniProt Q15645)
inactive: ibrutinib -0.025 | [1] -0.013 | ralimetinib 0.039 | [2] 0.023 | [3] -0.022 | [4] -0.004 | [5] 0.006 | [6] 0.029 | [7] 0.045 | [8] 0.001

TRIAP1 (UniProt O43715)
inactive: [1] -0.113 | ralimetinib 0 | [2] -0.008 | [3] -0.028 | [4] -0.102 | [5] 0.011 | [6] 0.082 | [7] 0.031 | [8] 0.016

TRAPPC10 (UniProt P48553)
inactive: ibrutinib -0.006 | [1] -0.004 | ralimetinib 0.025 | [2] -0.03 | [3] 0.027 | [4] 0.002 | [5] -0.029 | [6] 0.019 | [7] 0.02 | [8] -0.004

TRPM4 (UniProt Q8TD43)
inactive: ibrutinib 0.099 | ralimetinib -0.021 | [2] -0.063 | [3] -0.325 | [5] -0.055 | [6] 0.116 | [7] 0.05

TRIM5 (UniProt Q9C035)
inactive: ibrutinib -0.022 | [1] 0.116 | ralimetinib -0.042 | [2] 0.015 | [3] -0.036 | [4] 0.03 | [5] -0.021 | [6] 0.02 | [7] 0.046 | [8] -0.202

TRMT13 (UniProt Q9NUP7)
inactive: ibrutinib 0.063 | [1] 0.058 | ralimetinib 0.007 | [2] -0.04 | [3] -0.043 | [4] -0.038 | [5] -0.038 | [6] 0.033 | [7] 0.017 | [8] 0.005

TRIM58 (UniProt Q8NG06)
inactive: ibrutinib -0.015 | ralimetinib 0.003 | [2] -0.027 | [3] -0.089 | [4] 0.009 | [5] -0.024 | [6] -0.066 | [7] 0.034

TRIM27 (UniProt P14373)
inactive: ibrutinib 0.036 | ralimetinib 0.07 | [2] -0.056 | [3] 0.08 | [4] 0.207 | [6] 0.026 | [7] 0.07

TRDMT1 (UniProt O14717)
inactive: [1] -0.035 | ralimetinib -0.057 | [2] 0.052 | [3] 0.028 | [4] 0.139 | [5] 0.062 | [6] -0.088 | [7] -0.087 | [8] -0.019

TRIQK (UniProt Q629K1)
inactive: ibrutinib -0.047 | [1] -0.002 | ralimetinib -0.016 | [2] -0.023 | [3] 0.097 | [5] -0.082 | [6] 0.07 | [7] 0.059 | [8] 0.022

TRAPPC9 isoform 2 (UniProt Q96Q05)
inactive: ibrutinib 0.003 | [1] 0.019 | ralimetinib 0.055 | [2] -0.025 | [3] -0.003 | [4] -0.043 | [5] -0.023 | [6] 0.02 | [7] -0.016 | [8] -0.001
